{"source": "paper PMC4503256", "about": "(Biopharmaceutics & drug disposition, 2012)", "origin": "cited, not measured here", "conditions": "measured value; cited from earlier work"}
{"smiles": "CC(C)Cc1ccc(C(C)C(=O)O)cc1", "note": "(stereo not shown) [Ibuprofen]", "values": [{"measurement": "Intrinsic solubility at 37 °C", "result": "3.3 × 10^−4a M"}]}
